Laboratory results from the supplement of paper PMC10849652.
The other results are listed elsewhere or left out.

Chains of the proteins cited; added tags and fusions are not shown. Lines headed by an entry give the natural chain unless they say otherwise; changes in a name come on top.
UniProt P20248, whole entry, looked up: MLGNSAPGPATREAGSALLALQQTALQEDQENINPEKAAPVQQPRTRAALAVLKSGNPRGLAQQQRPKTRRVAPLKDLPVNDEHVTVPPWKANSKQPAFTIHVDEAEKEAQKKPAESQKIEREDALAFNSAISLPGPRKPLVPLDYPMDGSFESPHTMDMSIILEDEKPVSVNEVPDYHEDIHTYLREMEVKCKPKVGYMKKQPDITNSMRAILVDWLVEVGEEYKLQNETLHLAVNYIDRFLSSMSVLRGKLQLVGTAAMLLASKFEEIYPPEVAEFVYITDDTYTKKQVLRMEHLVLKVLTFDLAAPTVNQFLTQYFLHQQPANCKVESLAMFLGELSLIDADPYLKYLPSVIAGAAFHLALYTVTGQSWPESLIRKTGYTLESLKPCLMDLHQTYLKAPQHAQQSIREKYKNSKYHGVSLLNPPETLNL
UniProt Q3V6T2: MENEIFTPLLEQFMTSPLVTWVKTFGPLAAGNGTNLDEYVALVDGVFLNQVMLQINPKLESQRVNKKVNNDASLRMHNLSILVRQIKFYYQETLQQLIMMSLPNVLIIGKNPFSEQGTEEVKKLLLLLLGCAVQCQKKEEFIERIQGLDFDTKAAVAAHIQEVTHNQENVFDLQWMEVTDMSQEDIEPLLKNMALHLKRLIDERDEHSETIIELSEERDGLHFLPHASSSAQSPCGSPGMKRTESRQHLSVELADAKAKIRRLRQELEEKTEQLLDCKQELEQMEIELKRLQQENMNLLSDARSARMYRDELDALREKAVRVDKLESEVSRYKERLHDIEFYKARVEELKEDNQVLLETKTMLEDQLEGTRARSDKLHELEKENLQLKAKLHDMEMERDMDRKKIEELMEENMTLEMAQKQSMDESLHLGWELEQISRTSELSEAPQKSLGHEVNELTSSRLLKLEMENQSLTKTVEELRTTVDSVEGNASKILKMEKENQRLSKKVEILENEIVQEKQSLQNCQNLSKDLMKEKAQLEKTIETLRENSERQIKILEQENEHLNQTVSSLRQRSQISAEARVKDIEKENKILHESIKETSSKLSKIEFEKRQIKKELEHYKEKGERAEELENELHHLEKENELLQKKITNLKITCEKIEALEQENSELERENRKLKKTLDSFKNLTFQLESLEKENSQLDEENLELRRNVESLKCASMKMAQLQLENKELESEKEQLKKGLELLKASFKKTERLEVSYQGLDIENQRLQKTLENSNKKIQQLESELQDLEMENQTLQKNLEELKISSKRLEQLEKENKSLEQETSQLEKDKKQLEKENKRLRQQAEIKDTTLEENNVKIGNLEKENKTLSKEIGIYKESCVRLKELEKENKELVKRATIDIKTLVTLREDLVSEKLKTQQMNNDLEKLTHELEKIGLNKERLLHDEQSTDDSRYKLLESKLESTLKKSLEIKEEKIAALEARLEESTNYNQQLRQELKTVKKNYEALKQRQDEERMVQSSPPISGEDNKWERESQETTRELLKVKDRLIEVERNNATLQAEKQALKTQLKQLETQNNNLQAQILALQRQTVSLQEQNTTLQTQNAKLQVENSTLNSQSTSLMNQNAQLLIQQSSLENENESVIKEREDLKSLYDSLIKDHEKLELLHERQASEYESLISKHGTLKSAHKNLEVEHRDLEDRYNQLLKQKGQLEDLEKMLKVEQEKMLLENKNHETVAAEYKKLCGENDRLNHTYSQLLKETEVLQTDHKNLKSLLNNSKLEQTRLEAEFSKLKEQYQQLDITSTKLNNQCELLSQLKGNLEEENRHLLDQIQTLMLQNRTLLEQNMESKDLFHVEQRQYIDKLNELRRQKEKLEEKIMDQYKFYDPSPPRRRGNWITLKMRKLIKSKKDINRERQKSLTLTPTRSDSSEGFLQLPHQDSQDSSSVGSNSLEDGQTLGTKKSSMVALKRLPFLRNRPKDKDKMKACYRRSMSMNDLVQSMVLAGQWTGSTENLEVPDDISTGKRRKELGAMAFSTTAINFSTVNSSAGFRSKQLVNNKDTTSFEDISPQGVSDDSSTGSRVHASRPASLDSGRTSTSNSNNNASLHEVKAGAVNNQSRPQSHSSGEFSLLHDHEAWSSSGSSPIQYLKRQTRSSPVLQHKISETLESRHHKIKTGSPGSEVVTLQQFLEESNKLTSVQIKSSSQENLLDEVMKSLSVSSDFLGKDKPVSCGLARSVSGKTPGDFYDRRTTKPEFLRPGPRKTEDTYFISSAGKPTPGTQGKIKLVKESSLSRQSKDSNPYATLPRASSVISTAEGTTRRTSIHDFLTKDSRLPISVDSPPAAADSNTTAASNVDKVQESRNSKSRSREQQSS
UniProt P24385, whole entry, looked up: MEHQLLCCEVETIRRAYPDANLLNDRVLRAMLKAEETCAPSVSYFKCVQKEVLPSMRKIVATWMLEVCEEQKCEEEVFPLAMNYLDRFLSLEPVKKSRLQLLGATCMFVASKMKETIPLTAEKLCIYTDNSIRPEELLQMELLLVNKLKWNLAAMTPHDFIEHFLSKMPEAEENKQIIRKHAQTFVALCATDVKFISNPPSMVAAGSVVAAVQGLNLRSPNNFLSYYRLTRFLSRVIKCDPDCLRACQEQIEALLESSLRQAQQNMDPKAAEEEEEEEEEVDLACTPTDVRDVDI
UniProt Q4G0S7: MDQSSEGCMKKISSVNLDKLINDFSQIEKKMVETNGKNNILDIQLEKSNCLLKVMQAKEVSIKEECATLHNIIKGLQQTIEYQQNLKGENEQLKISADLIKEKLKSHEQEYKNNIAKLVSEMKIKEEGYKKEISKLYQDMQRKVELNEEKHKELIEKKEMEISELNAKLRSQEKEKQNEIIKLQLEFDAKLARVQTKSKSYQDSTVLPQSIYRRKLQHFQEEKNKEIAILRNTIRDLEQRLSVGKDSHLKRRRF
UniProt Q8N9Z2: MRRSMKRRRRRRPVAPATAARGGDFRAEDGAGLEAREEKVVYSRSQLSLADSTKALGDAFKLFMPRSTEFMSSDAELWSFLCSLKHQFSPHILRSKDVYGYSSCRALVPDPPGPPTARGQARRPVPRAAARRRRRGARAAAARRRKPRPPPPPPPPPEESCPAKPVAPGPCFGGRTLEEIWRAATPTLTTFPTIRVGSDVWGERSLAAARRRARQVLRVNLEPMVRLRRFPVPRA
UniProt Q96JN2: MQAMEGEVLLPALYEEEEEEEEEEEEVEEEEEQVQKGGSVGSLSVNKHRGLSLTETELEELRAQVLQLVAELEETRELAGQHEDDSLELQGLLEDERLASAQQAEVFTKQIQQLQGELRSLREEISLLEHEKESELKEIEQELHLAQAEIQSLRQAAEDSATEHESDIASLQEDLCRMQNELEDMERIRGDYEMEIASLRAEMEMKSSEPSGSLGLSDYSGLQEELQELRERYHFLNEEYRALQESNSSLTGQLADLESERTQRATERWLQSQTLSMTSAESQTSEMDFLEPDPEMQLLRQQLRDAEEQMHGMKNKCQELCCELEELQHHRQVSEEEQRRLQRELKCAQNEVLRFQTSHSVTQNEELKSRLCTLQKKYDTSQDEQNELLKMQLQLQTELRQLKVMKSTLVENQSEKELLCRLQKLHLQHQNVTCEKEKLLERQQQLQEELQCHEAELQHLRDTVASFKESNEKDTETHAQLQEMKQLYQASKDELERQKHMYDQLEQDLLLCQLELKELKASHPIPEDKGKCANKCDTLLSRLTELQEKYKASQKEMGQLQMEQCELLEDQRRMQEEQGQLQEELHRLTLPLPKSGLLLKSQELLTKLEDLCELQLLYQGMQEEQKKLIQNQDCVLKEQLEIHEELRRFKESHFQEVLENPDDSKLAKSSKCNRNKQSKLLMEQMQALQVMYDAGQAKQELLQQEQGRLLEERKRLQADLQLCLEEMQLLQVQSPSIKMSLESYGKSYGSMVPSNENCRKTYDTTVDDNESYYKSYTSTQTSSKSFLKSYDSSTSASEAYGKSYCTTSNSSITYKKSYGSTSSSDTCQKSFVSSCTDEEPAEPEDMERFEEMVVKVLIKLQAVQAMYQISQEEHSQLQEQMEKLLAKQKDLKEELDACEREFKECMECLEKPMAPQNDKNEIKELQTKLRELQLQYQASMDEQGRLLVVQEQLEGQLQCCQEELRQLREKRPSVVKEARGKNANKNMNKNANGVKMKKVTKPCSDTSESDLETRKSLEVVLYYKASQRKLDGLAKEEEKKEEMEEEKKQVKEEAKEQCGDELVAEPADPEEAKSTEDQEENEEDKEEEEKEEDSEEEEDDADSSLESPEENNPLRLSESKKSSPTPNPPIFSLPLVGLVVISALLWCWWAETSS
UniProt P20138, whole entry, looked up: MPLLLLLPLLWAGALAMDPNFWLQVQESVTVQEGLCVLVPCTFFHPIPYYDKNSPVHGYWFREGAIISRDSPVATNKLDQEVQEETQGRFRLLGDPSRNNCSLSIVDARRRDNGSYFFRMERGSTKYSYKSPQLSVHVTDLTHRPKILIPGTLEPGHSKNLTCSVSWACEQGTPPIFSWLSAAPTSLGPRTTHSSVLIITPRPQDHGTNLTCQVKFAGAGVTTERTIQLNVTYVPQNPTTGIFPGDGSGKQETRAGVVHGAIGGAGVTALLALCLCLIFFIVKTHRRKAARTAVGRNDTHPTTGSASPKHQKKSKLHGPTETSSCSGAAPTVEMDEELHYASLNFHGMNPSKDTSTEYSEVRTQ
UniProt Q9UK58: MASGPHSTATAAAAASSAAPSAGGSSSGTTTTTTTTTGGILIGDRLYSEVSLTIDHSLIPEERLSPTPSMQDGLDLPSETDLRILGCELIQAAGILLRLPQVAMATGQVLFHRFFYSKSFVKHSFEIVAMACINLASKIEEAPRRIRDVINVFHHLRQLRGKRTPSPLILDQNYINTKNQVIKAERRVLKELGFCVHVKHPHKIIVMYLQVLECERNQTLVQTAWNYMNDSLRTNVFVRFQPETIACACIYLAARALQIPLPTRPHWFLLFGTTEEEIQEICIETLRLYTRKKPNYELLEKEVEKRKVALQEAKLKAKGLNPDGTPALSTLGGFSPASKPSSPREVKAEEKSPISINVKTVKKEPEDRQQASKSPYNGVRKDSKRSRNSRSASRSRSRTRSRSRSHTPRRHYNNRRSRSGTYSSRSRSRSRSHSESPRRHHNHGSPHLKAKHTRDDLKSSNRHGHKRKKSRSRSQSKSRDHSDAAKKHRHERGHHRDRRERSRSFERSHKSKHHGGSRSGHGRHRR
UniProt Q8IUF1: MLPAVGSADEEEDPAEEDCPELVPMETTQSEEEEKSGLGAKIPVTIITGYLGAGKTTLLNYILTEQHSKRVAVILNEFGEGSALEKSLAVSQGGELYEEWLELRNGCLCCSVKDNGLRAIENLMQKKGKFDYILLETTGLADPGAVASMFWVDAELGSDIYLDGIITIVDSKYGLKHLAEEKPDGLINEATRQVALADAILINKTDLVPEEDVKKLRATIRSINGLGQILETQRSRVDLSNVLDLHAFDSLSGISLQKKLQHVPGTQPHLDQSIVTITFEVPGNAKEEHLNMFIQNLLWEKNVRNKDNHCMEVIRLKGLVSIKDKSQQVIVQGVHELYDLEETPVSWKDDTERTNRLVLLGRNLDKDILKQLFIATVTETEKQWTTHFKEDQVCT
UniProt Q9BX69: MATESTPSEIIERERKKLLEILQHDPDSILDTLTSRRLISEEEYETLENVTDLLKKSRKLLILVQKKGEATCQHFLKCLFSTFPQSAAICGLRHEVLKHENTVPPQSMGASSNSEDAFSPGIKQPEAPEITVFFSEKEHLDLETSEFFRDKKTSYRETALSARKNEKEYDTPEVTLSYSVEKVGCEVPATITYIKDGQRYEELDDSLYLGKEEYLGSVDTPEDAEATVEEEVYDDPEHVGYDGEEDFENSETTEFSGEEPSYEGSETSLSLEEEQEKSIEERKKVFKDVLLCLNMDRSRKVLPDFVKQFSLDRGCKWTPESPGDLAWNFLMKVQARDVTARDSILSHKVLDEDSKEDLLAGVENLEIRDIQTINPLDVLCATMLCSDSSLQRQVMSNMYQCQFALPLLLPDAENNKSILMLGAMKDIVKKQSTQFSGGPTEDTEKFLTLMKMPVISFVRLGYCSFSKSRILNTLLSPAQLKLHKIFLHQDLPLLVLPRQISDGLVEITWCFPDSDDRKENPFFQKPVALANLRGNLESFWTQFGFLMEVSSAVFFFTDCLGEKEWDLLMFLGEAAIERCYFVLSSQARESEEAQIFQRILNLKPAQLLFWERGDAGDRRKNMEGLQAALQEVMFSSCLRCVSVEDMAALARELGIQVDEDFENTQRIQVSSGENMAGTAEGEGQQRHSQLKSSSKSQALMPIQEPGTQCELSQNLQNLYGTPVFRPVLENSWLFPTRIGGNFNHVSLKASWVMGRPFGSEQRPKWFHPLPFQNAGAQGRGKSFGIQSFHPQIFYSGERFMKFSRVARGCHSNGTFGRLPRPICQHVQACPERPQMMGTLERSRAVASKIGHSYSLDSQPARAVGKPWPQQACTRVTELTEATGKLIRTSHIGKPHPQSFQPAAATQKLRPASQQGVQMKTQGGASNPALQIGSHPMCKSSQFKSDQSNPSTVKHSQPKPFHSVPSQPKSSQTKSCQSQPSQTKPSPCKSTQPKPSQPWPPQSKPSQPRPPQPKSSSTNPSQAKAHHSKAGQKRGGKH

What was measured:
Assay in all cases: log2 fold change, soluble protein after heating vs DMSO (PISA); higher = thermal stabilisation; K562 lysate, 10 uM; active = over 0.2 and 3.5 SD of the protein, either way, in both replicates (recomputed)
[1] = compound: C1=CC=C(C=C1)[C@H](COC2=CC3=C(C=C2)NC(=O)N3)NC(=O)C4=CC=CN(C4=O)CC5=CC(=C(C=C5)F)F
Outline: (§1)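 To prepare the extract, K562 pellets were dounce-homogenised in PBS pH 7.4 with 1 mM MgCl2, giving crude material at 1 mg/mL protein. This was treated with 10 μM compound for 30 min, then heated in aliquots for 3 min over 48°C-58°C before pooling and addition of NP-40 to 0.5% at 4°C. Centrifugation at 21,000xg for 90 min left soluble protein in the supernatant, which TMTpro 16plex LC-MS/MS quantified with equalised channel sums. Results are log-two fold changes in thermal stability compared with solvent controls, from duplicates.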

[2] = compound: CC1=C(SC2=C1C(=N[C@H](C3=NN=C(N32)C)CC(=O)N)C4=CC=C(C=C4)Cl)C
Outline: as §1

[3] = compound: CC1=C2C(=CC=C1)N=C(N(C2=O)C3=CC=CC=C3C)CN4C=NC5=C(N=CN=C54)N
Outline: as §1

[4] = compound: Cc1sc2c(c1C)C(c1ccc(Cl)cc1)=N[C@@H](CC(=O)OC(C)(C)C)c1nnc(C)n1-2
Outline: as §1

[5] = compound: c1ccc([C@@H]2C[C@H]2NC2CCNCC2)cc1
Outline: as §1

Row | Target | log2 fold change [1] | log2 fold change [2] | log2 fold change [3] | log2 fold change [4] | log2 fold change [5]
1 | CCNA2 (UniProt P20248) | inactive: 0.013 | inactive: -0.006 | inactive: -0.003 | inactive: -0.021 | inactive: -0.068
2 | CARS isoform 3 (UniProt P49589) | inactive: -0.026 | inactive: 0.014 | inactive: 0.007 | inactive: 0.035 | inactive: 0.03
3 | CCNH (UniProt P51946) | inactive: -0.028 | inactive: -0.004 | inactive: 0.022 | inactive: -0.039 | inactive: -0.01
4 | CCDC28A (UniProt Q8IWP9) | inactive: 0.074 | inactive: 0.081 | inactive: 0.033 | inactive: -0.109 | inactive: -0.01
5 | CCDC50 isoform 2 (UniProt Q8IVM0) | inactive: 0.004 | inactive: 0.043 | inactive: -0.02 | inactive: 0.008 | inactive: 0.008
6 | CCDC82 (UniProt Q8N4S0) | inactive: 0.046 | inactive: -0.045 | inactive: -0.049 | inactive: -0.036 | inactive: 0.053
7 | CCDC8 (UniProt Q9H0W5) |  |  |  | inactive: -0.003 | 
8 | CCDC127 (UniProt Q96BQ5) | inactive: -0.052 | inactive: -0.053 |  | inactive: 0.043 | inactive: -0.026
9 | CCDC88A isoform 2 (UniProt Q3V6T2) |  |  |  |  | inactive: -0.104
10 | CCND1 (UniProt P24385) |  |  |  |  | inactive: -0.085
11 | CASP8AP2 (UniProt Q9UKL3) | inactive: -0.048 | inactive: 0.064 |  |  | inactive: 0.042
12 | CCDC152 (UniProt Q4G0S7) |  |  | inactive: -0.085 | inactive: -0.037 | 
13 | CBX8 (UniProt Q9HC52) |  |  | inactive: 0.009 |  | 
14 | CAV2 (UniProt P51636) |  |  |  | inactive: -0.27 | inactive: -0.158
15 | CCDC71L (UniProt Q8N9Z2) |  |  |  | inactive: -0.005 | inactive: -0.004
16 | CD53 (UniProt P19397) | inactive: 0.048 | inactive: -0.032 | inactive: -0.036 |  | inactive: -0.078
17 | CASP7 isoform 3 (UniProt P55210) | inactive: 0.035 | inactive: -0.02 |  | inactive: -0.105 | 
18 | CCDC9, A0A2R8Y4Z8 | inactive: -0.021 | inactive: 0.072 |  | inactive: -0.174 | 
19 | CD68 (UniProt P34810) |  |  |  |  | inactive: 0.069

Quoted from the listing:
log2 fold change [5] with CCND1 (UniProt P24385) reads inactive: -0.085
log2 fold change [4] with CAV2 (UniProt P51636) reads inactive: -0.27
log2 fold change [5] with CCNA2 (UniProt P20248) reads inactive: -0.068

Following part:

Row | Target | log2 fold change [1] | log2 fold change [2] | log2 fold change [3] | log2 fold change [4] | log2 fold change [5]
20 | CBX3 (UniProt B8ZZ43) |  |  |  |  | inactive: -0.079
21 | CBFA2T2 isoform 4 (UniProt O43439) |  |  | inactive: -0.037 | inactive: 0.148 | inactive: -0.043
22 | CCDC136 isoform 4 (UniProt Q96JN2) |  |  | inactive: 0.04 | inactive: -0.062 | inactive: 0.101
23 | CCT6B (UniProt Q92526) | inactive: 0.006 | inactive: -0.165 |  |  | inactive: 0.018
24 | CCDC175 (UniProt P0C221) |  |  | inactive: 0.201 |  | inactive: -0.158
25 | CD33 (UniProt P20138) |  |  |  | inactive: -0.069 | inactive: 0.038
26 | CBLL1 (UniProt Q75N03) |  |  | inactive: 0.017 | inactive: 0.01 | inactive: -0.015
27 | CCT6B isoform 3 (UniProt Q92526) |  |  | inactive: 0.068 | inactive: -0.319 | 
28 | CD80 (UniProt P33681) |  |  | inactive: 0.032 | inactive: 0.018 | inactive: 0.048
29 | CCNL1 (UniProt Q9UK58) |  |  |  |  | inactive: -0.109
30 | CD276 (UniProt Q5ZPR3) |  |  |  |  | inactive: 0.127
31 | CCDC18 (UniProt Q5T9S5) |  |  |  | inactive: -0.074 | inactive: -0.277
32 | CASS4 (UniProt Q9NQ75) |  |  | inactive: -0.061 | inactive: 0.015 | inactive: -0.008
33 | CD44 (UniProt P16070) |  |  |  |  | inactive: 0.024
34 | CBWD2 (UniProt Q8IUF1) | inactive: 0.033 | inactive: 0.023 | inactive: 0.079 | inactive: 0.008 | inactive: 0.162
35 | CD109 (UniProt Q6YHK3) |  |  |  |  | inactive: -0.033
36 | CARD6 (UniProt Q9BX69) |  |  | inactive: -0.03 | inactive: 0.001 | 
37 | CCND2 (UniProt P30279) | inactive: -0.114 | inactive: 0.12 |  | inactive: 0.066 | 
